Taken from: PubChem BioAssay AID504764 (Drosophila RNAi Screening Center, 2011)

Aim: 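Genome-wide screen for regulators of Notch-driven gene expression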 (primary screen)
Cells: Drosophila Kc167 cells
Reagents: long dsRNA against Drosophila genes
Time to read-out: about 5 days (4 days dsRNA, then 24 h after transfection)
Challenge: transfection of constitutively active membrane-tethered Notch lacking the extracellular domain, read 24 h later
Measurement: 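Firefly luciferase from an E(spl)m3 reporter with active Notch, plus control-promoter and uninduced reporter wells for normalisation; unnormalised counts, duplicate wells a and b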
Scale: induced reporter light, run 1, well a and induced reporter light, run 1, well b: higher = more light from the Notch target reporter with active Notch; control promoter light, run 1, well a and control promoter light, run 1, well b: higher = more light from the viral control promoter (cell number, transfection, viability); uninduced reporter light, run 1, well a: higher = more light from the Notch target reporter without active Notch
Hit rule: 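Hit if the duplicate-averaged log2 ratio of induced to control-promoter light gives a plate-wise z beyond ±2, or induced to uninduced beyond ±1.8; weak-control or discordant-duplicate wells dropped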
Meaning of the calls: active = modifier hit (raised or lowered Notch signal); inactive = not a hit
The deposit covers about 22,000 reagents; this is an unselected part of those with a known target gene and a result. Of all reagents, 403 (1.9%) got an active call. 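Unnormalised raw counts per well; ratio z-scores behind the hit calls and whether each hit raises or lowers signal are not deposited.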 The record does not give: the amount of reagent.

| gene | amplicon | induced reporter light, run 1, well a | induced reporter light, run 1, well b | control promoter light, run 1, well a | control promoter light, run 1, well b | uninduced reporter light, run 1, well a | Outcome |
| --- | --- | --- | --- | --- | --- | --- | --- |
| CG13868 | DRSC06427 | 1.01e5 | 88935 | 1.93e5 | 1.88e5 | 8145 | inactive |
| CG34299 | DRSC13974 | 2.08e5 | 1.71e5 | 1.88e5 | 1.88e5 | 15020 | inactive |
| CG15198 | DRSC19645 | 1.04e5 | 1.04e5 | 2.05e5 | 1.29e5 | 7785 | inactive |
| kl-3 (retired record) | DRSC20730 | 2.12e5 | 2.06e5 | 3.47e5 | 3.72e5 | 16225 | inactive |
| kl-3 (retired record) | DRSC20891 | 1.04e5 | 81910 | 1.08e5 | 1.02e5 | 9685 | inactive |
| kl-3 (retired record) | DRSC20934 | 3.36e5 | 3.14e5 | 5.79e5 | 4.93e5 | 21795 | inactive |
| CheB74a | DRSC09503 | 1.76e5 | 1.54e5 | 2.43e5 | 2.47e5 | 20350 | inactive |
| CG11007 | DRSC06023 | 85730 | 97660 | 1.67e5 | 2.00e5 | 7230 | inactive |
| Sec10 | DRSC17053 | 62850 | 83485 | 66145 | 80320 | 6335 | inactive |
| Vps37B | DRSC12165 | 91810 | 1.08e5 | 99150 | 73045 | 7800 | inactive |
| RpS19a | DRSC20281 | 14295 | 13620 | 16130 | 17525 | 1175 | inactive |
| APC4 | DRSC18360 | 2.13e5 | 1.79e5 | 2.43e5 | 2.59e5 | 12135 | inactive |
| RpL3 | DRSC16834 | 66275 | 62960 | 45500 | 27235 | 8460 | inactive |
| fd19B | DRSC20688 | 78480 | 78770 | 97355 | 1.29e5 | 9445 | inactive |
| CG42542 | DRSC15549 | 1.62e5 | 1.43e5 | 1.55e5 | 1.19e5 | 10880 | inactive |
| CG8042 | DRSC09676 | 1.10e5 | 1.23e5 | 77925 | 37495 | 9845 | inactive |
| Odc1 | DRSC07482 | 1.85e5 | 1.62e5 | 2.17e5 | 2.16e5 | 20330 | inactive |
| Or65a | DRSC08808 | 2.07e5 | 1.85e5 | 2.54e5 | 3.11e5 | 13542 | active |
| CG9503 | DRSC20186 | 86055 | 76095 | 84975 | 68245 | 12332 | inactive |
| Tmem63 | DRSC06063 | 1.74e5 | 1.87e5 | 2.42e5 | 2.06e5 | 17942 | inactive |
| CG31013 | DRSC16542 | 1.29e5 | 1.22e5 | 1.64e5 | 1.88e5 | 11320 | inactive |
| CG5770 | DRSC06954 | 89290 | 87295 | 1.61e5 | 1.48e5 | 7915 | inactive |
| CG33235 | DRSC19641 | 1.12e5 | 1.54e5 | 2.01e5 | 1.90e5 | 7680 | inactive |
| Mst33A | DRSC03371 | 1.16e5 | 1.85e5 | 70130 | 88410 | 18985 | inactive |
| CG10068 | DRSC12508 | 1.24e5 | 1.10e5 | 85085 | 82710 | 7785 | inactive |
| Ude | DRSC15324 | 1.96e5 | 1.90e5 | 2.72e5 | 2.41e5 | 12485 | inactive |
| HnRNP-K | DRSC07585 | 1.31e5 | 1.05e5 | 1.66e5 | 1.99e5 | 9750 | inactive |
| Tao | DRSC19573 | 1.51e5 | 1.49e5 | 1.10e5 | 72625 | 9475 | inactive |
| Tao | DRSC19574 | 1.19e5 | 1.06e5 | 97415 | 1.09e5 | 12900 | inactive |
| LTV1 | DRSC05951 | 1.05e5 | 97295 | 1.04e5 | 89480 | 8020 | inactive |
| CR33318 | DRSC22949 | – | – | – | – | – | inactive |
| GAA1 | DRSC18267 | 1.71e5 | 1.77e5 | 1.94e5 | 1.67e5 | 11470 | inactive |
| cold | DRSC00538 | 1.83e5 | 2.01e5 | 2.17e5 | 2.31e5 | 17445 | inactive |
| yuri | DRSC01453 | 76555 | 63395 | 88155 | 75735 | 8025 | inactive |
| yuri | DRSC01454 | 26795 | 27310 | 27450 | 31345 | 5010 | inactive |
| yuri | DRSC01943 | 1.16e5 | 1.24e5 | 1.53e5 | 1.66e5 | 10340 | inactive |
| yuri | DRSC01972 | 1.75e5 | 1.74e5 | 1.55e5 | 1.57e5 | 15595 | inactive |
| tef | DRSC07301 | 1.15e5 | 99585 | 1.83e5 | 2.28e5 | 8315 | inactive |
| CG5880 | DRSC15906 | 1.83e5 | 2.07e5 | 2.79e5 | 2.82e5 | 13220 | inactive |
| CG5096 | DRSC02813 | 1.58e5 | 2.18e5 | 1.02e5 | 1.35e5 | 21870 | inactive |
| yellow-e3 | DRSC15170 | 3.02e5 | 2.72e5 | 2.25e5 | 2.23e5 | 19775 | inactive |
| CG14079 | DRSC10083 | 1.12e5 | 84240 | 1.19e5 | 1.10e5 | 7690 | inactive |
| CG18662 | DRSC02691 | 1.46e5 | 1.70e5 | 82000 | 93455 | 20855 | inactive |
| CG12831 | DRSC06179 | 2.62e5 | 2.04e5 | 2.26e5 | 2.93e5 | 19690 | inactive |
| REPTOR-BP | DRSC02683 | 1.35e5 | 1.53e5 | 85950 | 1.13e5 | 23055 | inactive |
| CCT6 | DRSC20095 | 58640 | 53720 | 79790 | 54635 | 5520 | inactive |
| CG17294 | DRSC02596 | 94840 | 90115 | 84900 | 99325 | 8110 | inactive |
| Socs44A | DRSC06828 | 1.84e5 | 1.99e5 | 2.45e5 | 2.26e5 | 17550 | inactive |
| CG14453 | DRSC11710 | 1.18e5 | 1.14e5 | 87820 | 1.03e5 | 6365 | inactive |
| CG15629 | DRSC00464 | 1.04e5 | 91695 | 88285 | 87410 | 6915 | inactive |

Records above whose gene name begins with K or k (3):
| gene | amplicon | induced reporter light, run 1, well a | induced reporter light, run 1, well b | control promoter light, run 1, well a | control promoter light, run 1, well b | uninduced reporter light, run 1, well a | Outcome |
| --- | --- | --- | --- | --- | --- | --- | --- |
| kl-3 (retired record) | DRSC20730 | 2.12e5 | 2.06e5 | 3.47e5 | 3.72e5 | 16225 | inactive |
| kl-3 (retired record) | DRSC20891 | 1.04e5 | 81910 | 1.08e5 | 1.02e5 | 9685 | inactive |
| kl-3 (retired record) | DRSC20934 | 3.36e5 | 3.14e5 | 5.79e5 | 4.93e5 | 21795 | inactive |
